# The list shows a part of the results. Many values rest on one well or one pass, so single values are uncertain.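 The apoptosis fraction was the count of cleaved-PARP antibody-stained nuclei relative to all DNA-stained nuclei, imaged in 1,536-well plates. Screening doses were set so most cells survived, and baseline and induced cleaved-PARP levels vary greatly across cell lines.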
# Tests used:
# Experiment in all cases: cleaved PARP positive nuclei fraction relative to DMSO control; melanoma cells; higher = more apoptosis
# Details in all cases: library dose: low library concentration; 72 h
# [1] = system: MZ2-MEL
# [2] = system: MeWo
# [3] = system: RPMI7951
# [4] = system: RVH-421
# [5] = system: SkMel28
# [6] = system: SkMel2
# [7] = system: SkMel30
# [8] = system: UACC62
# [9] = system: WM115
# [10] = system: WM1716
# [11] = system: WM1745
# [12] = system: WM3526
# [13] = system: WM3619
# [14] = system: WM451Lu
Compound,cleaved PARP positive nuclei fraction [1] [%],cleaved PARP positive nuclei fraction [2] [%],cleaved PARP positive nuclei fraction [3] [%],cleaved PARP positive nuclei fraction [4] [%],cleaved PARP positive nuclei fraction [5] [%],cleaved PARP positive nuclei fraction [6] [%],cleaved PARP positive nuclei fraction [7] [%],cleaved PARP positive nuclei fraction [8] [%],cleaved PARP positive nuclei fraction [9] [%],cleaved PARP positive nuclei fraction [10] [%],cleaved PARP positive nuclei fraction [11] [%],cleaved PARP positive nuclei fraction [12] [%],cleaved PARP positive nuclei fraction [13] [%],cleaved PARP positive nuclei fraction [14] [%]
"COc1ccc(C2=N[C@@H](c3ccc(Cl)cc3)[C@@H](c3ccc(Cl)cc3)N2C(=O)N2CCNC(=O)C2)c(OC(C)C)c1 [Nutlin-3] + Nc1nc(F)nc2c1ncn2[C@@H]1O[C@H](CO)[C@@H](O)[C@@H]1O [fludarabine] (first compound 0.1 µM, partner dose 0.2 µM)",65,303,72,55.9,92.2,370,820,345,178,309,95.3,177,104,207
"CC(=O)O[C@@]12CO[C@@H]1C[C@H](O)[C@@]1(C)C(=O)[C@H](O)C3=C(C)[C@@H](OC(=O)[C@H](O)[C@@H](NC(=O)OC(C)(C)C)c4ccccc4)C[C@@](O)([C@@H](OC(=O)c4ccccc4)[C@H]21)C3(C)C [Docetaxel] + Cc1cc(Nc2cc(N3CCN(C)CC3)nc(/C=C/c3ccccc3)n2)n[nH]1 [ENMD2076] (first compound 0.0001 µM, partner dose 0.04 µM)",726,339,170,175,188,592,104,380,79.4,65.6,147,67.1,144,61.5
"CS(=O)(=O)c1ccc(C(=O)Nc2ccc(Cl)c(-c3ccccn3)c2)c(Cl)c1 [vismodegib] + C[C@]1(c2nc3c(C(N)=O)cccc3[nH]2)CCCN1 [Veliparib] (first compound 1 µM, partner dose 1.4 µM)",74.1,48.2,124,63.1,40.1,126,21.5,111,99,147,94.5,38.3,81.3,39
"NC(=O)c1ccc(N(C(N)=O)c2c(F)cccc2F)nc1-c1ccc(F)cc1F + Cc1nc(Nc2ncc(C(=O)Nc3c(C)cccc3Cl)s2)cc(N2CCN(CCO)CC2)n1 [dasatanib] (first compound 0.4 µM, partner dose 0.004 µM)",147,130,121,144,51.5,98.5,61.6,120,140,31.1,120,395,104,130
"CC1(C)CCC(c2ccc(Cl)cc2)=C(CN2CCN(c3ccc(C(=O)NS(=O)(=O)c4ccc(N[C@H](CCN5CCOCC5)CSc5ccccc5)c(S(=O)(=O)C(F)(F)F)c4)cc3)CC2)C1 + COc1ccc(C2=N[C@@H](c3ccc(Cl)cc3)[C@@H](c3ccc(Cl)cc3)N2C(=O)N2CCNC(=O)C2)c(OC(C)C)c1 [Nutlin-3] (first compound 0.4 µM, partner dose 0.1 µM)",175,186,255,134,92.4,160,130,82.4,475,82.8,860,127,104,134
"CCN(CC)CCNC(=O)c1c(C)[nH]c(/C=C2\C(=O)Nc3ccc(F)cc32)c1C [sunitinib] + Cc1nc(Nc2ncc(C(=O)Nc3c(C)cccc3Cl)s2)cc(N2CCN(CCO)CC2)n1 [dasatanib] (first compound 0.4 µM, partner dose 0.004 µM)",111,266,110,116,95,67.5,92.9,218,172,27.5,121,140,82.6,153
"CN(c1ncccc1CNc1nc(Nc2ccc3c(c2)CC(=O)N3)ncc1C(F)(F)F)S(C)(=O)=O + Cc1cc(Nc2cc(N3CCN(C)CC3)nc(/C=C/c3ccccc3)n2)n[nH]1 [ENMD2076] (first compound 0.08 µM, partner dose 0.04 µM)",77.8,117,44.3,24,52.7,76.4,74.9,63.8,103,73.2,113,400,167,99
"CN(c1ncccc1CNc1nc(Nc2ccc3c(c2)CC(=O)N3)ncc1C(F)(F)F)S(C)(=O)=O + Cn1nnc2c(C(N)=O)ncn2c1=O [temozolomide] (first compound 0.08 µM, partner dose 2 µM)",141,58.1,578,66.7,187,63.9,97.8,126,229,49.4,108,138,105,28.8

# Full records, quoted from the list. Values in the order: cleaved PARP positive nuclei fraction [1] [%]	cleaved PARP positive nuclei fraction [2] [%]	cleaved PARP positive nuclei fraction [3] [%]	cleaved PARP positive nuclei fraction [4] [%]	cleaved PARP positive nuclei fraction [5] [%]	cleaved PARP positive nuclei fraction [6] [%]	cleaved PARP positive nuclei fraction [7] [%]	cleaved PARP positive nuclei fraction [8] [%]	cleaved PARP positive nuclei fraction [9] [%]	cleaved PARP positive nuclei fraction [10] [%]	cleaved PARP positive nuclei fraction [11] [%]	cleaved PARP positive nuclei fraction [12] [%]	cleaved PARP positive nuclei fraction [13] [%]	cleaved PARP positive nuclei fraction [14] [%]
# NC(=O)c1ccc(N(C(N)=O)c2c(F)cccc2F)nc1-c1ccc(F)cc1F + Cc1nc(Nc2ncc(C(=O)Nc3c(C)cccc3Cl)s2)cc(N2CCN(CCO)CC2)n1 [dasatanib] (first compound 0.4 µM, partner dose 0.004 µM) in the list: 147	130	121	144	51.5	98.5	61.6	120	140	31.1	120	395	104	130
# CN(c1ncccc1CNc1nc(Nc2ccc3c(c2)CC(=O)N3)ncc1C(F)(F)F)S(C)(=O)=O + Cn1nnc2c(C(N)=O)ncn2c1=O [temozolomide] (first compound 0.08 µM, partner dose 2 µM) in the list: 141	58.1	578	66.7	187	63.9	97.8	126	229	49.4	108	138	105	28.8

# Reference: the supplement of paper PMC4604168 (melanoma cell lines)
